PubChem BioAssay AID1224830, NIAID, 2016
The whole screen tested about 18,000 reagents; below is an unselected part. In the full data, about 2,900 (16%) are marked active. 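Calls are made per well; low scores hint the gene aids the LPS response, high scores that it dampens it.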 Unmarked entries are inactive. Repeated entries: four replicate wells of each siRNA pool. No sequences are given here.

Aim: 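Host factors that control LPS-induced TNF expression in human macrophages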 (primary screen)
Cell system: human THP-1 monocytic leukaemia cells, TNF dual-luciferase reporter clone, PMA-differentiated to macrophage-like cells
Knock-down reagent: siRNA pool against human genes, 50 nM
Duration: LPS for 4 h, given about 3 days after siRNA transfection
Treatment: bacterial LPS (TLR4 ligand), 10 ng/ml
Read-out: 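TNF firefly reporter luminescence divided by renilla, normalised to the plate median, then turned into a robust z-score for each replicate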
Direction: TNF reporter robust z-score: higher = stronger TNF reporter response to LPS
Rule for the call: 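Each well counts as active if its z-score is over 2.8 or under -1.5; controls are left without a call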

| gene | TNF reporter robust z-score |
| --- | --- |
| LUM | -0.02 |
| LUM | 1.36 |
| LUM | 2.88 (active) |
| LUM | 2.87 (active) |
| YAE1 | 0.48 |
| YAE1 | 0.62 |
| YAE1 | 0.66 |
| YAE1 | 1.24 |
| RSPH10B | -0.67 |
| RSPH10B | -0.49 |
| RSPH10B | -0.81 |
| RSPH10B | -0.21 |
| ANKK1 | -0.55 |
| ANKK1 | 0.25 |
| ANKK1 | 0.55 |
| ANKK1 | 1.39 |
| TRUB1 | 0.78 |
| TRUB1 | 0.39 |
| TRUB1 | 1.16 |
| TRUB1 | 0.09 |
| RESF1 | 0.08 |
| RESF1 | 0.88 |
| RESF1 | 0.57 |
| RESF1 | 0.75 |
| ST3GAL1 | -0.13 |
| ST3GAL1 | 1.45 |
| ST3GAL1 | -0.02 |
| ST3GAL1 | 0.63 |
| CALM2 | 1.58 |
| CALM2 | -0.2 |
| CALM2 | -1 |
| CALM2 | -0.21 |
| HERPUD1 | -0.43 |
| HERPUD1 | 0.4 |
| HERPUD1 | 0.35 |
| HERPUD1 | -0.71 |
| ABHD17AP1 | 0.87 |
| ABHD17AP1 | 1.09 |
| ABHD17AP1 | 0.35 |
| ABHD17AP1 | 2.37 |

Not a retest: an excerpt of the list.
| gene | TNF reporter robust z-score |
| --- | --- |
| YAE1 | 0.62 |
| YAE1 | 0.66 |
| YAE1 | 1.24 |
| RSPH10B | -0.67 |
| RSPH10B | -0.49 |
| RSPH10B | -0.81 |
| RSPH10B | -0.21 |
| ANKK1 | -0.55 |
| ANKK1 | 0.25 |
| ANKK1 | 0.55 |

The listing continues.
| gene | TNF reporter robust z-score |
| --- | --- |
| TCTN3 | -0.93 |
| TCTN3 | 0.41 |
| TCTN3 | -0.25 |
| TCTN3 | 0.48 |
| MRPL22 | 1.74 |
| MRPL22 | -0.44 |
| MRPL22 | 0.79 |
| MRPL22 | 3.11 (active) |
| MAGEA5P | 2.37 |
| MAGEA5P | -0.22 |
| MAGEA5P | 2.03 |
| MAGEA5P | 2.17 |
| ZCCHC17 | -0.41 |
| ZCCHC17 | -0.29 |
| ZCCHC17 | -1.52 (active) |
| ZCCHC17 | 0.14 |
| KRTAP5-10 | -0.67 |
| KRTAP5-10 | 0.35 |
| KRTAP5-10 | -0.29 |
| KRTAP5-10 | 0.24 |
| CDK17 | 1.1 |
| CDK17 | 0.7 |
| CDK17 | 1.31 |
| CDK17 | 2.93 (active) |
| UBE2H | -1.79 (active) |
| UBE2H | -0.56 |
| UBE2H | -0.31 |
| UBE2H | -0.18 |
| TAS2R42 | -0.68 |
| TAS2R42 | 1.64 |
| TAS2R42 | 1.04 |
| TAS2R42 | 0.49 |
| BCL2L12 | -1.1 |
| BCL2L12 | -0.84 |
| BCL2L12 | -0.02 |
| BCL2L12 | -0.39 |
| KSR1 | -0.34 |
| KSR1 | -0.24 |
| KSR1 | -0.17 |
| KSR1 | 0.04 |
| KCNN4 | -0.57 |
| KCNN4 | -1.05 |
| KCNN4 | -0.23 |
| KCNN4 | -0.36 |
| TPH2 | -0.51 |
| TPH2 | -0.62 |
| TPH2 | -0.23 |
| TPH2 | 0.24 |
| CYP27B1 | -1.08 |
| CYP27B1 | -1.28 |
| CYP27B1 | -1.21 |
| CYP27B1 | -0.59 |
| CLDN7 | 0.56 |
| CLDN7 | -0.63 |
| CLDN7 | 0.39 |
| CLDN7 | 0.8 |
| C3AR1 | -0.31 |
| C3AR1 | -0.64 |
| C3AR1 | 1.32 |
| C3AR1 | 2.49 |
| RIPK3 | 1.45 |
| RIPK3 | 3.06 (active) |
| RIPK3 | 1.38 |
| RIPK3 | -0.62 |
| CCPG1 | 0.72 |
| CCPG1 | -1.03 |
| CCPG1 | -1.07 |
| CCPG1 | -0.59 |
| CCPG1 | 1.32 |
| CCPG1 | 1.17 |
| CCPG1 | 2.45 |
| CCPG1 | 2.87 (active) |
